Measured values reported in paper doi:10.1101/2025.06.14.659695.

Protein sequences, listed by entry. Tags and fused reporters are not part of them. Residues count along the entry.
UniProt O14786, residues 22-923: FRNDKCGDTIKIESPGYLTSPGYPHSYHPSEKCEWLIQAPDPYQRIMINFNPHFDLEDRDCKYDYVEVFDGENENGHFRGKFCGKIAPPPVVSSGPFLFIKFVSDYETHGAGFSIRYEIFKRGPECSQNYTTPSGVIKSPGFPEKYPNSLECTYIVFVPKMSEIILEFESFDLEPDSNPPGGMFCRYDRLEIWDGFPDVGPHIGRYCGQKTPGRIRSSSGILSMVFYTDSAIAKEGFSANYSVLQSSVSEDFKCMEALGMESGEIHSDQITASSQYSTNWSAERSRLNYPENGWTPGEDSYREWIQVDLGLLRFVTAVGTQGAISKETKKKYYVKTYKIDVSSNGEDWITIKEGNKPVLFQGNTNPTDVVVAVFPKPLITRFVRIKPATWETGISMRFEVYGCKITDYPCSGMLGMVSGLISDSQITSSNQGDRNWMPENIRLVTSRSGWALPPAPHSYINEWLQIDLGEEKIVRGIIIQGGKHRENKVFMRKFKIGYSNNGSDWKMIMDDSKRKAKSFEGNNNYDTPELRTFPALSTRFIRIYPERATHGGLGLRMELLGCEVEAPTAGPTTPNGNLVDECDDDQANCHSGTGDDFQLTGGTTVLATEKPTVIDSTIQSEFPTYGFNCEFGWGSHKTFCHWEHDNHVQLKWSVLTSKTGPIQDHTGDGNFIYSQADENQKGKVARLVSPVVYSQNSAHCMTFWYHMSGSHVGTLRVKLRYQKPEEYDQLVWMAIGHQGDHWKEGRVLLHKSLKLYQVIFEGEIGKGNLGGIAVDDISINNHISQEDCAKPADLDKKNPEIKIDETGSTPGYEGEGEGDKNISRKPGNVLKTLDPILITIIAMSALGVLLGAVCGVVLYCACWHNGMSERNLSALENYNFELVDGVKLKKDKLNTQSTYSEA

Tests used:
Experiment in all cases: proximity labelling
[1] = target: neuropilin-1 (human (endogenous in PPC1)) (UniProt O14786)
[2] = target: neuropilin-1 (human (endogenous in PPC1)) (UniProt O14786); remark: listed apart in the source
[3] = target: neuropilin-1 (human (endogenous in PPC1)) (UniProt O14786); remark: listed apart in the source

Measured: binding

RPARPAR (biotin-ahx on the N-terminus; free C-terminus (-OH)) [RPAR-HRP: Biotin-ahx-RPARPAR-OH on streptavidin–horseradish peroxidase]
binds: [1] | [2] | [3]

Like-named read-outs stand apart in the source and are kept apart here. These are yes or no findings as the source states them, for the method shown. Binding seen in cells or lysates may run through a third protein. These calls come from enrichment with a bait or labelling near it, and not all partners need be listed.
